Results taken from PubChem BioAssay AID2685 (National Center for Advancing Translational Sciences (NCATS), 2010).
The list shows a part of the results. Shown are side measurements of this screen, not its main read-out; they come without a call. Most of these compounds were active or inconclusive in the main read-out, so they are no random draw. Potencies come from curve fits of mixed quality, noted in brackets.

Experiment: qHTS Assay for Lipid Storage Modulators in Drosophila S3 Cells;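 for cell number change: cells counted by Cell Tracker Red CMTPX staining in the red channel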
Conditions: BODIPY lipid droplet fluorescence, 18-24 h; for cell number change: measured here: cell count max response, cells fed with added oleic acid
How it was run: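 Drosophila S3 cells loaded with oleic acid (400 uM, as added) and compounds at several concentrations; lipid droplets imaged by 488-nm laser-scanning cytometry, 500–530 nm intensity and object ratio to cell channel. Percent activity normalized to 20 uM Triacsin C.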

[1] = measured here: lipid fluorescence (Fed channel) AC50, cells fed with added oleic acid
[2] = measured here: cell number channel AC50, cells fed with added oleic acid

| Compound | AC50 [1] | cell number change | AC50 [2] |
| --- | --- | --- | --- |
| Cc1ccccc1-n1ncc2c1CC(C)(C)CC2NC(=O)CSc1ccncc1 (stereo not drawn) | 0.517 µM [falling, full curve] | – | – |
| CCCN(CC(=O)Nc1ccccc1C)C(=O)c1cccc(S(=O)(=O)N2CCN(c3ccccc3)CC2)c1 | 0.461 µM [rising, single point] | 37.7% | 0.58 µM [rising, single point] |
| COc1ccc(-c2cc(C(=O)N3CCCC3)no2)cc1 | 11.6 µM [falling, single point] | 23% | – |
| Cc1cccc(N2CCN(C(=O)CC(NC(=O)c3ccccc3)c3ccccc3)CC2C)c1 (stereo not drawn) | 0.164 µM [falling, full curve, poor fit] | -4.22% | – |
| CCCCC(CC)C(=O)NCCCN1CCN(CCCNC(=O)C(CC)CCCC)CC1 (stereo not drawn) | 0.517 µM [falling, full curve, poor fit] | 8.79% | – |
| CC(O)c1cc2c(cc1NC(=O)c1cnn3c1NC(c1ccco1)CC3C(F)(F)F)OCO2 (stereo not drawn) | 1.84 µM [rising, full curve] | 20.1% | – |
| O=C(CSc1ccccc1)NC1CCCCCCC1 | 11.6 µM [rising, partial curve, poor fit] | 30.2% | 7.31 µM [rising, partial curve, poor fit] |
| O=C(COC(=O)c1ccccc1)NCCC1=CCCCC1 | 0.00517 µM [falling, full curve, poor fit] | 9.65% | – |
| CCN(CC(=O)Nc1c(F)cccc1F)C(=O)c1ccc(=O)n(Cc2ccccc2)n1 | 3.26 µM [rising, full curve] | – | – |
| CN(c1ccc(OCC(=O)Nc2nc(-c3ccccc3)cs2)cc1)S(=O)(=O)c1ccc(F)cc1 | 1.64 µM [rising, full curve] | 1.27% | – |
| Cc1cc2c(c(=O)n1Cc1cccnc1)C(c1cccs1)C(C#N)=C(N)O2 (stereo not drawn) | 1.46 µM [rising, full curve] | – | 1.3 µM [rising, full curve] |
| Cc1ccc(CN(c2ccc(C(=O)N3CCOCC3)cc2)S(C)(=O)=O)cc1 | – | -15.8% | – |
| COc1cccc(NC(=O)CN(C)CC(=O)NC(C)c2ccccc2)c1 (stereo not drawn) | 18.4 µM [falling, partial curve, poor fit] | -29.9% | – |
| COc1ccc(/C=N/Nc2ccc(C(=O)O)cc2)c(OC)c1OC | 6.51 µM [rising, single point] | -16.2% | – |
| Cc1nnc(NCc2n[nH]c(=O)c3ccccc23)c2ccccc12 | 0.411 µM [rising, full curve, poor fit] | -40.7% | 16.4 µM [falling, single point] |
| COc1ccc(-c2ccnc(-c3ccc(O)cc3)n2)cc1 | 0.517 µM [falling, single point] | -0.34% | 0.517 µM [falling, single point] |
| CN1CCCCc2c1nc1ccccc1c2N (tested in a mixture with another compound) | 0.651 µM [rising, partial curve] | 33.1% | 11.6 µM [rising, partial curve] |
| O=C(N/N=C/c1cc([N+](=O)[O-])ccc1O)C12CC3CC(CC(C3)C1)C2 | – | 18.2% | – |
| CCN(CC)S(=O)(=O)c1ccc(Cl)c(NC(=O)COC(=O)C2CCCCC2)c1 | 2.91 µM [rising, partial curve, poor fit] | -5.62% | – |
| Cc1nc2ccccc2nc1OCc1ccccc1 | 3.26 µM [rising, partial curve] | -32.6% | 25.9 µM [falling, single point] |

| Compound | AC50 [1] | cell number change | AC50 [2] |
| --- | --- | --- | --- |
| CC(=O)Nc1nn(C)c2nc(C)cc(C)c12 | – | 158% | – |
| CN(Cc1ccco1)S(=O)(=O)c1ccc(CN2C(=O)c3cccnc3C2=O)s1 | 0.82 µM [rising, full curve, poor fit] | 6.12% | – |
| O=C(CSc1nnc(-c2ccc(Cl)cc2)n1-c1ccccc1)N/N=C/c1ccccc1C(=O)O | 6.51 µM [rising, single point] | 9.85% | – |
| Fc1ccc(N/N=C/c2ccncc2)c(F)c1 | – | -8.64% | – |
| Cc1ccc(NC(=O)/C(C#N)=C/c2ccc(C)s2)c(C)c1 | 0.082 µM [rising, full curve] | 98.7% | 0.103 µM [rising, full curve] |
| COc1cccc(N2CC(C(=O)N3CCC4(CC3)CC(=O)c3ccccc3O4)CC2=O)c1 (stereo not drawn) | – | – | 5.8 µM [rising, partial curve] |
| Cc1ccc(-n2c(Cc3cccn3C)nnc2SCC(N)=O)cc1 | 1.64 µM [falling, full curve, poor fit] | 2.67% | – |
| O=C(CCCSc1nnc(-c2cccs2)n1CC1CCCO1)c1ccccc1 (stereo not drawn) | 7.31 µM [rising, partial curve] | 20.4% | 2.06 µM [rising, partial curve, poor fit] |
| CC(C)n1c(SCCCc2ccccc2)nc2c1c(=O)[nH]c(=O)n2C | 8.2 µM [rising, partial curve] | 4.23% | – |
| CCOC(=O)NS(=O)(=O)c1ccc(CCNC(=O)c2cc(C)on2)cc1 | 0.259 µM [falling, full curve] | -24.7% | – |
| Cc1cc(-c2ccc(/C=N/n3cnnc3)o2)c([N+](=O)[O-])cc1C | 23.1 µM [falling, single point] | -9.76% | – |
| CN=C1C([N+](=O)[O-])=CC=C2C1=NC1(CCCCC1)N2O | – | -4% | – |
| COc1ccccc1NC(=S)N1CCN(Cc2ccccc2)CC1 | 10.3 µM [rising, partial curve, poor fit] | 24.2% | – |
| Cc1cc2cc(CNC(=S)Nc3ccc(OC(F)F)cc3)ccc2n1C | 29.1 µM [falling, single point] | 0.961% | – |
| CCOC(=O)c1ccc(NC(=O)CN2CCN(C(=O)c3ccco3)CC2)cc1 | 0.0731 µM [rising, full curve, poor fit] | 5% | – |
| Cn1cccc1P(=O)(c1cccn1C)c1cccn1C | 5.8 µM [falling, partial curve] | – | – |
| COc1ccccc1CNS(=O)(=O)c1ccc(-c2cnc(C3CC3)o2)cc1 | – | -10% | 1.03 µM [rising, partial curve, poor fit] |
| Cc1ccc(Cn2ncc3c(N4CCN(Cc5ccc(Cl)cc5)CC4)ncnc32)cc1 | – | 48.2% | 25.9 µM [rising, single point] |
| Cc1ccc2c(c1)C(C)(C)[C@]1(C)NC(=O)CCN21 | 5.8 µM [falling, full curve] | -90.1% | 29.1 µM [falling, single point] |
| Cc1ccc(C)c(/C=N/NC(=S)NCCc2ccccc2)c1 | 0.461 µM [rising, partial curve, poor fit] | – | – |

Random excerpt: two entries already listed.

| Compound | AC50 [1] | cell number change | AC50 [2] |
| --- | --- | --- | --- |
| COc1ccccc1NC(=S)N1CCN(Cc2ccccc2)CC1 | 10.3 µM [rising, partial curve, poor fit] | 24.2% | – |
| CC(=O)Nc1nn(C)c2nc(C)cc(C)c12 | – | 158% | – |

Additional structures

| Compound | AC50 [1] | cell number change | AC50 [2] |
| --- | --- | --- | --- |
| COc1ccc(CNS(=O)(=O)NCc2ccc(C)cc2)cc1OC | 0.651 µM [rising, full curve, poor fit] | 8.96% | 0.651 µM [rising, single point] |
| COCCNC(=O)c1c[nH]c2ccc(S(=O)(=O)Nc3ccc(F)cc3F)cc2c1=O | – | 15.3% | – |
| O=[N+]([O-])c1cc(-c2ccc(/C=N/c3nc4ccccn4c3-c3ccco3)o2)ccc1Cl | – | 25.2% | – |
| COc1ccc(NC(=O)C2CCN(c3nnnn3-c3ccccc3)CC2)cc1 | – | -19.3% | – |
| OCC[C@H]1C[C@H](O)[C@@H](O)[C@]2(Cc3ccccc3CO2)O1 | – | 4.92% | – |
| O=C1CCC/C(=N\NC(=O)c2ccc(COc3cccc4cccnc34)cc2)C1 | 29.1 µM [rising, single point] | 11.9% | – |
| Cc1ccc(OCC(=O)N2CCN(C(=O)c3cccs3)CC2)cc1 | 29.1 µM [rising, single point] | 9.46% | – |
| Cc1ccc2nsnc2c1S(=O)(=O)N(Cc1ccco1)Cc1cc2ccc(C)c(C)c2[nH]c1=O | 29.1 µM [rising, single point] | 13.6% | – |
| CCOC(=O)CN(C)Cc1cn(C)nc1-c1ccc(Oc2ccccc2)cc1 | – | -25.1% | – |
| C=CCn1c(N2CCOCC2)nc2c1c(=O)[nH]c(=O)n2C | 1.64 µM [falling, partial curve] | -60.5% | 32.6 µM [falling, single point] |
| COc1ccc(Cc2nc(-c3ccc(NC(=O)c4cccnc4)cc3)no2)cc1 | 2.31 µM [rising, partial curve] | – | 3.66 µM [rising, single point] |
| CCc1ccccc1NC(=O)CCOc1ccccc1 | 0.92 µM [rising, partial curve] | 24.7% | – |
| CCc1ccccc1NC(=O)Cn1c(=O)n(-c2ccc(CC(=O)NCC3CCCO3)cc2)c(=O)c2ccccc21 (stereo not drawn) | 0.651 µM [rising, partial curve, poor fit] | -16.7% | 0.58 µM [rising, single point] |
| Cc1cccc(NC(=O)c2ccc(NC(C)c3ccccc3)c([N+](=O)[O-])c2)n1 (stereo not drawn) | – | -4.31% | 6.51 µM [falling, single point] |
| COc1ccc(NC(=O)Nc2ccc3c(c2)N(C)C(=O)CS3)cc1OC | 2.06 µM [rising, partial curve] | 12.1% | – |
| COC(=O)c1cc(C(=O)OCC(=O)N(C)C2CCS(=O)(=O)C2)cc([N+](=O)[O-])c1 (stereo not drawn) | 0.206 µM [falling, full curve, poor fit] | 5.08% | – |
| O=C(COC(=O)C(Cc1ccccc1)NC(=O)c1ccco1)NC1CC1 (stereo not drawn) | – | -24.8% | – |
| COc1ccc(/C(C)=N/NC(=S)NCCc2ccccc2)c(O)c1 | – | -13.2% | – |
| O/N=C\c1cccn1-c1nccs1 | 0.58 µM [rising, single point] | – | 0.731 µM [rising, partial curve] |

Of the compounds above, these contain an aryl methoxy group.

| Compound | AC50 [1] | cell number change | AC50 [2] |
| --- | --- | --- | --- |
| COc1ccc(-c2cc(C(=O)N3CCCC3)no2)cc1 | 11.6 µM [falling, single point] | 23% | – |
| COc1cccc(NC(=O)CN(C)CC(=O)NC(C)c2ccccc2)c1 (stereo not drawn) | 18.4 µM [falling, partial curve, poor fit] | -29.9% | – |
| COc1ccc(/C=N/Nc2ccc(C(=O)O)cc2)c(OC)c1OC | 6.51 µM [rising, single point] | -16.2% | – |
| COc1ccc(-c2ccnc(-c3ccc(O)cc3)n2)cc1 | 0.517 µM [falling, single point] | -0.34% | 0.517 µM [falling, single point] |
| COc1cccc(N2CC(C(=O)N3CCC4(CC3)CC(=O)c3ccccc3O4)CC2=O)c1 (stereo not drawn) | – | – | 5.8 µM [rising, partial curve] |
| COc1ccccc1NC(=S)N1CCN(Cc2ccccc2)CC1 | 10.3 µM [rising, partial curve, poor fit] | 24.2% | – |
| COc1ccccc1CNS(=O)(=O)c1ccc(-c2cnc(C3CC3)o2)cc1 | – | -10% | 1.03 µM [rising, partial curve, poor fit] |
| COc1ccc(CNS(=O)(=O)NCc2ccc(C)cc2)cc1OC | 0.651 µM [rising, full curve, poor fit] | 8.96% | 0.651 µM [rising, single point] |
| COc1ccc(NC(=O)C2CCN(c3nnnn3-c3ccccc3)CC2)cc1 | – | -19.3% | – |
| COc1ccc(Cc2nc(-c3ccc(NC(=O)c4cccnc4)cc3)no2)cc1 | 2.31 µM [rising, partial curve] | – | 3.66 µM [rising, single point] |
| COc1ccc(NC(=O)Nc2ccc3c(c2)N(C)C(=O)CS3)cc1OC | 2.06 µM [rising, partial curve] | 12.1% | – |
| COc1ccc(/C(C)=N/NC(=S)NCCc2ccccc2)c(O)c1 | – | -13.2% | – |
